Source: patent US20240254229A1 (Molecular Partners, published 2024)
Positions count from the first letter of the chain named. These are yes or no findings as the source states them, for the method shown. Some binding calls cover weakened binding; strength is not graded here.

Amino acid sequences for entries named in this document (tags omitted). A change or cut given only in a name is not applied to a line headed by its entry.
UniProt P20138: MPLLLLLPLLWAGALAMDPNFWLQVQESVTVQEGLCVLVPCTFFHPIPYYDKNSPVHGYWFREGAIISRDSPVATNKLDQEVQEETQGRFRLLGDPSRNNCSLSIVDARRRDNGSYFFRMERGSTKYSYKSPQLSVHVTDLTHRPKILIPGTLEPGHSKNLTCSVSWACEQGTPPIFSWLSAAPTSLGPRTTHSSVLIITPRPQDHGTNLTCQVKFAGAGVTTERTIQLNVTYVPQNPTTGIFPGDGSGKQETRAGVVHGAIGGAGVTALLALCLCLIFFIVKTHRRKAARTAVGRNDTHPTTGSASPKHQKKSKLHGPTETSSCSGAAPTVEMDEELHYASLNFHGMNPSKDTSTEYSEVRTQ
UniProt P26951: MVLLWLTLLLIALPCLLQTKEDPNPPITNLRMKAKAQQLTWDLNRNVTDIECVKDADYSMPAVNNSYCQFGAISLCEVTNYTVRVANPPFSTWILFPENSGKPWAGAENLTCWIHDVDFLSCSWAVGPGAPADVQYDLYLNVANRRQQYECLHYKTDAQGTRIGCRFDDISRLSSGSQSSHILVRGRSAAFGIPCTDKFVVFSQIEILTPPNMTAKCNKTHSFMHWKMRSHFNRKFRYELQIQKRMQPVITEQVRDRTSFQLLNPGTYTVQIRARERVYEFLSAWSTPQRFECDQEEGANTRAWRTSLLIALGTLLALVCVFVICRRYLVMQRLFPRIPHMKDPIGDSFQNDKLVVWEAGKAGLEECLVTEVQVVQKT
UniProt P32970: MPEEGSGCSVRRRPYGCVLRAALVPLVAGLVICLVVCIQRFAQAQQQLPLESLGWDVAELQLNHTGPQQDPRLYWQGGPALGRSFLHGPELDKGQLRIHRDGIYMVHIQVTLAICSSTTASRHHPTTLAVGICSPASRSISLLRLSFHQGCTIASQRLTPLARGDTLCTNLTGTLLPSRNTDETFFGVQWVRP

B1: DARPin® protein #62 (designed binder)
chain: DLGKKLLEAARAGQDDEVRELLKAGADVNAKDYFSHTPLHLAARNGHLKIVEVLLKAGADVNAKDFAGKTPLHLAAADGHLEIVEVLLKAGADVNAQDIFGKTPADIAADAGHEDIAEVLQKAAGSPTPTPTTPTPTPTTPTPTPTGSDLGKKLLEAARAGQDDEVRELLKAGADVNAKDYFSHTPLHLAARNGHLKIVEVLLKAGADVNAKDFAGKTPLHLAAADGHLEIVEVLLKAGADVNAQDIFGKTPADIAADAGHEDIAEVLQKAAGSPTPTPTTPTPTPTTPTPTPTGSDLGIKLLTAAYDGQLDEVRILLKAGADVNAKDLRGQTPLHYAAGLGHLEIVEVLLKAGADVNAKDLHGWTPLHLAAWSGHLEIVEVLLKAGADVNAQDVEGVTPADLAAVQGHQDIAEVLQKAAGSPTPTPTTPTPTPTTPTPTPTGSDLGVKLLLAAERGQLDEVRILLKAGADVNAKDIAEGYTPLHIAAYQGHLEIVEVLLKAGADVNAKDRYGKTPLHLAAIGGHLEIVEVLLKAGADVNAQDNKGSTPADLAADYGHQDIAEVLQKAAGSPTPTPTTPTPTPTTPTPTPTGSDLGKKLLEAALEGQLDEVRELLKAGADVNAKDQEGYTPLHLAAALGHLEIVEVLLKAGADVNAKDQIGRTPLHLAAYKGHLEIVEVLLKAGADVNAQDIIGQTPADLAAQRGHQDIAEVLQKAAGSPTPTPTTPTPTPTTPTPTPTGSDLGQKLLEAAWAGQDDEVRELLKAGADVNAKNSRGWTPLHTAAQTGHLEIFEVLLKAGADVNAKNDKRVTPLHLAAALGHLEIVEVLLKAGADVNARDSWGTTPADLAAKYGHQDIAEVLQKAA
notes: HSA-HSA-CD70-CD33-CD123-CD3
B2: DARPin® protein #58 (designed binder)
chain: DLGKKLLEAARAGQDDEVRELLKAGADVNAKDYFSHTPLHLAARNGHLKIVEVLLKAGADVNAKDFAGKTPLHLAAADGHLEIVEVLLKAGADVNAQDIFGKTPADIAADAGHEDIAEVLQKAAGSPTPTPTTPTPTPTTPTPTPTGSDLGKKLLEAARAGQDDEVRELLKAGADVNAKDYFSHTPLHLAARNGHLKIVEVLLKAGADVNAKDFAGKTPLHLAAADGHLEIVEVLLKAGADVNAQDIFGKTPADIAADAGHEDIAEVLQKAAGSPTPTPTTPTPTPTTPTPTPTGSDLGIKLLTAAYDGQLDEVRILLKAGADVNAKDLRGQTPLHYAAGLGHLEIVEVLLKAGADVNAKDLHGWTPLHLAAWSGHLEIVEVLLKAGADVNAQDVEGVTPADLAAVQGHQDIAEVLQKAAGSPTPTPTTPTPTPTTPTPTPTGSDLGWKLLDAAEIGQLDEVRILLKAGADVNAKDKQGITPLHIAAAHGHLEIVEVLLKAGADVNAKDEIGRTPLHLAAFKGHLEIVEVLLKAGADVNAQDIIGETPADLAAVRGHQDIAEVLQKAAGSPTPTPTTPTPTPTTPTPTPTGSDLGVKLLLAAERGQLDEVRILLKAGADVNAKDIAEGYTPLHIAAYQGHLEIVEVLLKAGADVNAKDRYGKTPLHLAAIGGHLEIVEVLLKAGADVNAQDNKGSTPADLAADYGHQDIAEVLQKAAGSPTGSDLGQKLLEAAWAGQDDEVRELLKAGADVNAKNSRGWTPLHTAAQTGHLEIFEVLLKAGADVNAKNDKRVTPLHLAAALGHLEIVEVLLKAGADVNARDSWGTTPADLAAKYGHQDIAEVLQKAA
notes: HSA-HSA-CD70-CD123-CD33-CD3
B3: DARPin® protein #59 (designed binder)
chain: DLGKKLLEAARAGQDDEVRELLKAGADVNAKDYFSHTPLHLAARNGHLKIVEVLLKAGADVNAKDFAGKTPLHLAAADGHLEIVEVLLKAGADVNAQDIFGKTPADIAADAGHEDIAEVLQKAAGSPTPTPTTPTPTPTTPTPTPTGSDLGKKLLEAARAGQDDEVRELLKAGADVNAKDYFSHTPLHLAARNGHLKIVEVLLKAGADVNAKDFAGKTPLHLAAADGHLEIVEVLLKAGADVNAQDIFGKTPADIAADAGHEDIAEVLQKAAGSPTPTPTTPTPTPTTPTPTPTGSDLGIKLLTAAYDGQLDEVRILLKAGADVNAKDLRGQTPLHYAAGLGHLEIVEVLLKAGADVNAKDLHGWTPLHLAAWSGHLEIVEVLLKAGADVNAQDVEGVTPADLAAVQGHQDIAEVLQKAAGSPTPTPTTPTPTPTTPTPTPTGSDLGKKLLEAALEGQLDEVRELLKAGADVNAKDQEGYTPLHLAAALGHLEIVEVLLKAGADVNAKDQIGRTPLHLAAYKGHLEIVEVLLKAGADVNAQDIIGQTPADLAAQRGHQDIAEVLQKAAGSPTPTPTTPTPTPTTPTPTPTGSDLGVKLLLAAERGQLDEVRILLKAGADVNAKDIAEGYTPLHIAAYQGHLEIVEVLLKAGADVNAKDRYGKTPLHLAAIGGHLEIVEVLLKAGADVNAQDNKGSTPADLAADYGHQDIAEVLQKAAGSPTGSDLGQKLLEAAWAGQDDEVRELLKAGADVNAKNSRGWTPLHTAAQTGHLEIFEVLLKAGADVNAKNDKRVTPLHLAAALGHLEIVEVLLKAGADVNARDSWGTTPADLAAKYGHQDIAEVLQKAA
notes: HSA-HSA-CD70-CD123-CD33-CD3
B4: DARPin® protein #57 (designed binder)
chain: B3 chain with E452Q, Q477I, V596K, I625R, G671S
notes: HSA-HSA-CD70-CD123-CD33-CD3; not shown: N-terminal His-tag
B5: DARPin® protein #60 (designed binder)
chain: DLGKKLLEAARAGQDDEVRELLKAGADVNAKDYFSHTPLHLAARNGHLKIVEVLLKAGADVNAKDFAGKTPLHLAAADGHLEIVEVLLKAGADVNAQDIFGKTPADIAADAGHEDIAEVLQKAAGSPTPTPTTPTPTPTTPTPTPTGSDLGKKLLEAARAGQDDEVRELLKAGADVNAKDYFSHTPLHLAARNGHLKIVEVLLKAGADVNAKDFAGKTPLHLAAADGHLEIVEVLLKAGADVNAQDIFGKTPADIAADAGHEDIAEVLQKAAGSPTPTPTTPTPTPTTPTPTPTGSDLGIKLLTAAYDGQLDEVRILLKAGADVNAKDLRGQTPLHYAAGLGHLEIVEVLLKAGADVNAKDLHGWTPLHLAAWSGHLEIVEVLLKAGADVNAQDVEGVTPADLAAVQGHQDIAEVLQKAAGSPTPTPTTPTPTPTTPTPTPTGSDLGKKLLQAARAGQLDEVRELLKAGADVNAKDQYGRTPLHLAAIKGHLEIVEVLLKAGADVNAKDSLGYTPLHLAAVEGPLEIVEVLLKAGADVNAKDAYGQTPLHIAAAWGHLEIVEVLLKAVADVNAQDKSGKTPADLAARAGHQDIAEVLQKAAGSPTPTPTTPTPTPTTPTPTPTGSDLGVKLLLAAERGQLDEVRILLKAGADVNAKDIAEGYTPLHIAAYQGHLEIVEVLLKAGADVNAKDRYGKTPLHLAAIGGHLEIVEVLLKAGADVNAQDNKGSTPADLAADYGHQDIAEVLQKAAGSPTGSDLGQKLLEAAWAGQDDEVRELLKAGADVNAKNSRGWTPLHTAAQTGHLEIFEVLLKAGADVNAKNDKRVTPLHLAAALGHLEIVEVLLKAGADVNARDSWGTTPADLAAKYGHQDIAEVLQKAA
notes: HSA-HSA-CD70-CD123-CD33-CD3
B6: DARPin® protein #61 (designed binder)
chain: DLGKKLLEAARAGQDDEVRELLKAGADVNAKDYFSHTPLHLAARNGHLKIVEVLLKAGADVNAKDFAGKTPLHLAAADGHLEIVEVLLKAGADVNAQDIFGKTPADIAADAGHEDIAEVLQKAAGSPTPTPTTPTPTPTTPTPTPTGSDLGKKLLEAARAGQDDEVRELLKAGADVNAKDYFSHTPLHLAARNGHLKIVEVLLKAGADVNAKDFAGKTPLHLAAADGHLEIVEVLLKAGADVNAQDIFGKTPADIAADAGHEDIAEVLQKAAGSPTPTPTTPTPTPTTPTPTPTGSDLGKKLLQAARAGQLDEVRELLKAGADVNAKDQQGLTPLHIAANLGHLEIVEVLLKAGADVNAKDLFGLTPLHLAAFEGHLEIVEVLLKAGADVNAKDQHGATPLHLAAWVGHLEIVEVLLKAGADVNAQDKSGKTPADLAARAGHQDIAEVLQKAAGSPTPTPTTPTPTPTTPTPTPTGSDLGKKLLQAALEGQLDEVRELLKAGADVNAKDIEGYTPLHLAAALGHLEIVEVLLKAGADVNAKDQIGRTPLHLAAYKGHLEIVEVLLKAGADVNAQDIIGQTPADLAAQRGHQDIAEVLQKAAGSPTPTPTTPTPTPTTPTPTPTGSDLGKKLLLAAERGQLDEVRILLKAGADVNAKDRAEGYTPLHIAAYQGHLEIVEVLLKAGADVNAKDRYGKTPLHLAAISGHLEIVEVLLKAGADVNAQDNKGSTPADLAADYGHQDIAEVLQKAAGSPTGSDLGQKLLEAAWAGQDDEVRELLKAGADVNAKNSRGWTPLHTAAQTGHLEIFEVLLKAGADVNAKNDKRVTPLHLAAALGHLEIVEVLLKAGADVNARDSWGTTPADLAAKYGHQDIAEVLQKAA
notes: HSA-HSA-CD70-CD123-CD33-CD3

molecular target: Molm-13 N1 tumor cells (carrying CD123, CD33 and CD70) (human) (UniProt P20138+P26951+P32970); assay: flow cytometry on Molm-13 N1 cells, anti-DARPin rabbit antibody and Alexa Fluor 647 secondary antibody, 20 µM HSA

binding, binds:
B1
B2
B3
B4
B5
B6
